Data as given in PubChem BioAssay AID1259308 (NCATS, 2017)
Purpose: 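Knock-downs that increase output of a recombinant reporter protein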 (primary screen). System: human HEK293 embryonic kidney cells stably expressing firefly luciferase (HEK-CMV-Luc2-Hygro). Reagent: single siRNA against human genes, 0.8 pmol siRNA per well. Timing: 72 h. Measurement: 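Reporter luminescence and viable-cell signal on separate replicate plates, given as percent of non-targeting control and median/MAD z-scores, plus per-cell luciferase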. Scale: total luciferase, z-score and total luciferase, % of control: higher = more reporter protein produced; luciferase per cell, z-score: higher = more reporter output per viable cell; viable cells, % of control: higher = more viable cells. Active means: 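An siRNA counts as active if its total luciferase robust z-score exceeds 3; genes with two or more such siRNAs out of three were retested with fresh siRNAs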. Calls: active = raised luciferase; inactive = no rise.
Shown is an unselected part of about 59,000 deposited reagents. About 1,510 of them (2.6%) count as active. 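Calls use total luciferase alone and ignore viability, so some active siRNAs may act by altering cell number.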 Reagents against one gene are numbered here. Reagent sequences are not shown.

target gene | siRNA no. | total luciferase, z-score | total luciferase, % of control | luciferase per cell, z-score | viable cells, % of control | outcome
CORO1A | 1 | 0.341 | 88.7 | 0.4 | 89.2 | inactive
CORO1A | 2 | 0.829 | 98.4 | 0.828 | 88.4 | inactive
CORO1A | 3 | 2.36 | 129 | 1.44 | 98.5 | inactive
STX12 | 1 | 3.87 | 159 | 2.38 | 95 | active
STX12 | 2 | -0.459 | 72.8 | -0.712 | 98.1 | inactive
STX12 | 3 | -1.08 | 60.3 | -1.22 | 93.1 | inactive
ZC3H12C | 1 | -1.53 | 51.5 | 1.31 | 40.7 | inactive
ZC3H12C | 2 | 0.227 | 86.4 | -0.108 | 99.3 | inactive
ZC3H12C | 3 | 2.07 | 123 | 1.15 | 102 | inactive
HAAO | 1 | -0.827 | 65.4 | -0.938 | 93.6 | inactive
HAAO | 2 | -0.944 | 63.1 | -0.981 | 91.3 | inactive
HAAO | 3 | 0.912 | 100 | 0.7 | 93 | inactive
FANCM | 1 | -0.599 | 70 | -0.832 | 97.3 | inactive
FANCM | 2 | 0.636 | 94.5 | -0.0533 | 107 | inactive
FANCM | 3 | 0.537 | 92.6 | -0.132 | 107 | inactive
EXD2 | 1 | -0.339 | 75.2 | 0.0451 | 83 | inactive
EXD2 | 2 | 0.48 | 91.4 | 0.111 | 99.2 | inactive
EXD2 | 3 | 0.0222 | 82.3 | 0.0117 | 91.7 | inactive
DPP7 | 1 | -1.03 | 61.4 | -0.77 | 84 | inactive
DPP7 | 2 | 0.645 | 94.7 | 0.362 | 96.2 | inactive
DPP7 | 3 | -0.786 | 66.3 | -0.495 | 84.4 | inactive
JAK3 | 1 | -0.478 | 72.4 | -0.829 | 101 | inactive
JAK3 | 2 | -0.457 | 72.8 | -0.314 | 88.4 | inactive
JAK3 | 3 | 1.15 | 105 | 0.98 | 90.4 | inactive
ZSWIM9 | 1 | -0.324 | 75.4 | -0.494 | 96 | inactive
ZSWIM9 | 2 | 0.539 | 92.6 | 0.423 | 92.6 | inactive
ZSWIM9 | 3 | -0.483 | 72.3 | -0.726 | 97.8 | inactive
CCDC38 | 1 | -0.0721 | 80.5 | 1.16 | 66.3 | inactive
CCDC38 | 2 | -0.21 | 77.7 | 0.114 | 84.3 | inactive
CCDC38 | 3 | 0.301 | 87.9 | 0.272 | 91.4 | inactive
VPS4B | 1 | 0.423 | 90.3 | 0.23 | 95 | inactive
VPS4B | 2 | -0.745 | 67.1 | -0.146 | 77.9 | inactive
VPS4B | 3 | -1.3 | 55.9 | -0.4 | 69.5 | inactive
MON2 | 1 | -0.712 | 67.7 | -0.526 | 86.9 | inactive
MON2 | 2 | -1.01 | 61.9 | -1.38 | 99.4 | inactive
MON2 | 3 | 0.261 | 87.1 | 0.378 | 88.1 | inactive
SKIC2 | 1 | 0.153 | 84.9 | -0.267 | 102 | inactive
SKIC2 | 2 | -0.187 | 78.2 | -0.15 | 90.9 | inactive
SKIC2 | 3 | 1.91 | 120 | 2.02 | 78.8 | inactive
AK3 | 1 | 0.867 | 99.1 | 0.973 | 85.7 | inactive
AK3 | 2 | 1.01 | 102 | 1.22 | 82.7 | inactive
AK3 | 3 | 0.0341 | 82.6 | -0.709 | 111 | inactive
VOPP1 | 1 | 0.22 | 86.3 | 0.523 | 84 | inactive
VOPP1 | 2 | 0.0739 | 83.4 | -0.4 | 103 | inactive
VOPP1 | 3 | 0.748 | 96.8 | -0.0713 | 110 | inactive
PTPN2 | 1 | -0.268 | 76.6 | -0.656 | 102 | inactive
PTPN2 | 2 | 0.951 | 101 | 0.202 | 107 | inactive
PTPN2 | 3 | 0.409 | 90 | -0.379 | 111 | inactive
ACYP1 | 1 | 1.01 | 102 | 0.257 | 106 | inactive
ACYP1 | 2 | 2.57 | 133 | 1.8 | 92.5 | inactive
ACYP1 | 3 | -2 | 42.2 | -1.09 | 62.7 | inactive
NFIX | 1 | -0.247 | 77 | -0.695 | 103 | inactive
NFIX | 2 | -0.757 | 66.8 | -0.835 | 93 | inactive
NFIX | 3 | 0.528 | 92.4 | 0.409 | 92.7 | inactive
CLK4 | 1 | 0.458 | 91 | 0.757 | 83.3 | inactive
CLK4 | 2 | 0.292 | 87.7 | -0.0224 | 98.6 | inactive
CLK4 | 3 | -0.682 | 68.3 | -0.37 | 84.2 | inactive

Reagents above with an active call, once more:
target gene | siRNA no. | total luciferase, z-score | total luciferase, % of control | luciferase per cell, z-score | viable cells, % of control | outcome
STX12 | 1 | 3.87 | 159 | 2.38 | 95 | active
